Measured values published in doi:10.1101/606368.
These are yes or no findings as the source states them, for the method shown. Some results given as binding are weak or reduced against the parent protein; the word gives no strength.

Sequences of proteins named here, by UniProt entry; tags and fusion partners are left off.
UniProt P08799: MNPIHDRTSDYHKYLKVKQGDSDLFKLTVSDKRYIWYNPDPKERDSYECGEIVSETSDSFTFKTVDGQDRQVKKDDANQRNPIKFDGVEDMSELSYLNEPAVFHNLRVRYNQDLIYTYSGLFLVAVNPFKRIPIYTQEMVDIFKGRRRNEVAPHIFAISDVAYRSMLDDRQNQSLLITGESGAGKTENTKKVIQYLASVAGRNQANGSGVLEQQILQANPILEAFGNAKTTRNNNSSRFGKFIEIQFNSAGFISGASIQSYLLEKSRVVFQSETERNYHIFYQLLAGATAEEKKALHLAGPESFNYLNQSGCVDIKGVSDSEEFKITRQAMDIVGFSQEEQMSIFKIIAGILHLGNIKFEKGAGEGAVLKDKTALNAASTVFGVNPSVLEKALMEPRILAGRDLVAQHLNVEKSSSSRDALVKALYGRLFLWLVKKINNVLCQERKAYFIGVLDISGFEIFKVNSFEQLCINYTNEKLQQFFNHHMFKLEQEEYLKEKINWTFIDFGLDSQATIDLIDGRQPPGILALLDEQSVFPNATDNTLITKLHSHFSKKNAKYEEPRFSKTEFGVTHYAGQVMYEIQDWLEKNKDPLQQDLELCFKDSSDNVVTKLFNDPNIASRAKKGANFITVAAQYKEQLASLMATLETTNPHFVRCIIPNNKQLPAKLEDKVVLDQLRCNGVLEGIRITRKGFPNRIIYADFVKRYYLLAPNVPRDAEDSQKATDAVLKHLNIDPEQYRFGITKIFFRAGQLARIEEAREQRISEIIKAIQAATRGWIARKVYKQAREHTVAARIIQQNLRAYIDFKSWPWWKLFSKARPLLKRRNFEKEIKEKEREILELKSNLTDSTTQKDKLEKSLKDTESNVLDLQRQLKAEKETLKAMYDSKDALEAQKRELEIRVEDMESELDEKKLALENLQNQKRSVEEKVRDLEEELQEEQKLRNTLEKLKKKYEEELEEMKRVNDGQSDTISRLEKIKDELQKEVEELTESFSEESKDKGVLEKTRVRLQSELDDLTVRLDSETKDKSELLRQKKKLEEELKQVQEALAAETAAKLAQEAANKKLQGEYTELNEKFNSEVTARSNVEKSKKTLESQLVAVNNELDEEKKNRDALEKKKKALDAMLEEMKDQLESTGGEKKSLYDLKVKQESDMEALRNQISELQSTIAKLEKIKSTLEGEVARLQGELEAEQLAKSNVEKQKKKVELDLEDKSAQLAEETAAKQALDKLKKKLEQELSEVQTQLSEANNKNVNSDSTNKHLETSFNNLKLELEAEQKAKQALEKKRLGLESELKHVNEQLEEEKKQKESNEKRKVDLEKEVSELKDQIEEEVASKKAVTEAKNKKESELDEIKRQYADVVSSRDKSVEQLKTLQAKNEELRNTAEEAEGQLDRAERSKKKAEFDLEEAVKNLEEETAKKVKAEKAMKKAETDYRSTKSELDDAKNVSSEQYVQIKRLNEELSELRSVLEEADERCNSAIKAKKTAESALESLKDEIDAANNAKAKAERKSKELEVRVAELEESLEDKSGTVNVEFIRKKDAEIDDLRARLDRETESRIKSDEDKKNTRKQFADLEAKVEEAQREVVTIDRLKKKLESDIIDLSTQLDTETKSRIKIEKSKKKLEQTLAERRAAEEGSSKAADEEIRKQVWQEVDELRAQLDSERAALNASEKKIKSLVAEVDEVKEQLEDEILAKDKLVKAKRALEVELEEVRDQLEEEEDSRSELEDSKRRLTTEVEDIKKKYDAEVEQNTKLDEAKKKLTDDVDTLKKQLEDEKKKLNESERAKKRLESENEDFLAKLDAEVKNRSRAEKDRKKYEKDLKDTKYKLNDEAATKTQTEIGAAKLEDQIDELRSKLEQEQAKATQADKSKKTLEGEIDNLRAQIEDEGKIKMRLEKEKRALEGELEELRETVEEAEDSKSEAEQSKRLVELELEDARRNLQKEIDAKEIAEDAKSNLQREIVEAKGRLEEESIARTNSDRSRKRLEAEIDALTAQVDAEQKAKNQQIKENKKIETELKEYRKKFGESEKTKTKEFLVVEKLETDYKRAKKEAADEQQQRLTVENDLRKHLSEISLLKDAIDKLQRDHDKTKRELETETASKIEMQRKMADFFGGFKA

Target: Dictyostelium myosin II heavy chain (Dictyostelium) (UniProt P08799)
Assay: negative-stain EM with 2D class averages

binding: binds
Substance: Dictyostelium myosin II heavy chain (from UniProt P08799 1-2116)
